Source: US20090099072A1 (LES LABORATOIRES SERVIER, published 2009)
No constants are given. Whether binding was seen depends on the method and setting. Some results given as binding are weak or reduced against the parent protein; the word gives no strength.

Protein sequences, listed by entry. Tags and fused reporters are not part of them. Residues count along the entry.
UniProt Q07817, residues 1-209: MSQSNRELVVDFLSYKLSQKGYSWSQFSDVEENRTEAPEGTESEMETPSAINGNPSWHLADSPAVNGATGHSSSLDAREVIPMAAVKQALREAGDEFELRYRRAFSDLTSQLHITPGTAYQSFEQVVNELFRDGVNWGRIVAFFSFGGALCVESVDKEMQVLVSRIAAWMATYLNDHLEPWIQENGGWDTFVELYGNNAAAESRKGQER
UniProt P10415, residues 1-211: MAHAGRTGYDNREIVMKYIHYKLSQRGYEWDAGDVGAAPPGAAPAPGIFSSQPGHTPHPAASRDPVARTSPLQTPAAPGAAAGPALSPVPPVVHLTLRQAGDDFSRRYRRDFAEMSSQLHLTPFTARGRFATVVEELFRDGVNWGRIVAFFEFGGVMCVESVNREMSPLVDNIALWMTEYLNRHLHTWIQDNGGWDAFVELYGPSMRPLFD

Tests used:
Experiment in all cases: fluorescence polarisation competition
[1] = molecular target: T1, Bcl-XL (UniProt Q07817-1 1-209)
T1 construct: also called anti-apoptotic member of the Bcl-2 protein family

[2] = molecular target: T2, Bcl-2 (UniProt P10415-1 1-211, limits assumed)
T2 construct: also called anti-apoptotic member of the Bcl-2 protein family

[3] = molecular target: T3, Bcl-W (UniProt Q92843-1 1-172, limits assumed)
T3 construct: also called anti-apoptotic member of the Bcl-2 protein family
T3 sequence (looked up): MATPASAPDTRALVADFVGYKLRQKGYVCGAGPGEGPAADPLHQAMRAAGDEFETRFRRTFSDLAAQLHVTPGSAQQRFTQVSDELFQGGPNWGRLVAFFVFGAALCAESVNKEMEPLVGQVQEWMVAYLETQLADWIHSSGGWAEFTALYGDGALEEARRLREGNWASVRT

- binding [1]: binds
- binding [2]: binds
- binding [3]: binds
Binder: GTMENLSRRLKVTGDLFDIMSGQTDV [Beclin peptide, motif GTMENLSRRLKVTGDLFDIMSGQTDV of the Beclin protein]
